# These are yes or no findings as the source states them, for the method shown. In cells and extracts the contact can be indirect. Here binding means that the protein was enriched with, or labelled near, the bait; the list need not be complete. A no says only that the protein was not detected with the bait. Sequences can lack the tags named with a protein.
# B1: SUVH4 (protein, UniProt Q8GZB6 1-624)
# chain: MAGKRKRANAPDQTERRSSVRVQKVRQKALDEKARLVQERVKLLSDRKSEICVDDTELHEKEEENVDGSPKRRSPPKLTAMQKGKQKLSVSLNGKDVNLEPHLKVTKCLRLFNKQYLLCVQAKLSRPDLKGVTEMIKAKAILYPRKIIGDLPGIDVGHRFFSRAEMCAVGFHNHWLNGIDYMSMEYEKEYSNYKLPLAVSIVMSGQYEDDLDNADTVTYTGQGGHNLTGNKRQIKDQLLERGNLALKHCCEYNVPVRVTRGHNCKSSYTKRVYTYDGLYKVEKFWAQKGVSGFTVYKYRLKRLEGQPELTTDQVNFVAGRIPTSTSEIEGLVCEDISGGLEFKGIPATNRVDDSPVSPTSGFTYIKSLIIEPNVIIPKSSTGCNCRGSCTDSKKCACAKLNGGNFPYVDLNDGRLIESRDVVFECGPHCGCGPKCVNRTSQKRLRFNLEVFRSAKKGWAVRSWEYIPAGSPVCEYIGVVRRTADVDTISDNEYIFEIDCQQTMQGLGGRQRRLRDVAVPMNNGVSQSSEDENAPEFCIDAGSTGNFARFINHSCEPNLFVQCVLSSHQDIRLARVVLFAADNISPMQELTYDYGYALDSVHGPDGKVKQLACYCGALNCRKRLY
# B2: SUVH5 (protein, UniProt O82175 1-794)
# chain: MVHSESSILSSLRGGDGGGIPCSKDELAINGSYTDPMGRRKSKRFKVAAESEFSPDFGSITRQLRSRRMQKEFTVETYETRNVSDVCVLSSQADVELIPGEIVAERDSFKSVDCNDMSVGLTEGAESLGVNMQEPMKDRNMPENTSEQNMVEVHPPSISLPEEDMMGSVCRKSITGTKELHGRTISVGRDLSPNMGSKFSKNGKTAKRSISVEEENLVLEKSDSGDHLGPSPEVLELEKSEVWIITDKGVVMPSPVKPSEKRNGDYGEGSMRKNSERVALDKKRLASKFRLSNGGLPSCSSSGDSARYKVKETMRLFHETCKKIMQEEEARPRKRDGGNFKVVCEASKILKSKGKNLYSGTQIIGTVPGVEVGDEFQYRMELNLLGIHRPSQSGIDYMKDDGGELVATSIVSSGGYNDVLDNSDVLIYTGQGGNVGKKKNNEPPKDQQLVTGNLALKNSINKKNPVRVIRGIKNTTLQSSVVAKNYVYDGLYLVEEYWEETGSHGKLVFKFKLRRIPGQPELPWKEVAKSKKSEFRDGLCNVDITEGKETLPICAVNNLDDEKPPPFIYTAKMIYPDWCRPIPPKSCGCTNGCSKSKNCACIVKNGGKIPYYDGAIVEIKPLVYECGPHCKCPPSCNMRVSQHGIKIKLEIFKTESRGWGVRSLESIPIGSFICEYAGELLEDKQAESLTGKDEYLFDLGDEDDPFTINAAQKGNIGRFINHSCSPNLYAQDVLYDHEEIRIPHIMFFALDNIPPLQELSYDYNYKIDQVYDSNGNIKKKFCYCGSAECSGRLY
# B3: SUVH6 (protein, UniProt Q8VZ17 1-790)
# chain: MEMGVMENLMVHTEISKVKSQSNGEVEKRGVSVLENGGVCKLDRMSGLKFKRRKVFAVRDFPPGCGSRAMEVKIACENGNVVEDVKVVESLVKEEESLGQRDASENVSDIRMAEPVEVQPLRICLPGGDVVRDLSVTAGDECSNSEQIVAGSGVSSSSGTENIVRDIVVYADESSLGMDNLDQTQPLEIEMSDVAVAKPRLVAGRKKAKKGIACHSSLKVVSREFGEGSRKKKSKKNLYWRDRESLDSPEQLRILGVGTSSGSSSGDSSRNKVKETLRLFHGVCRKILQEDEAKPEDQRRKGKGLRIDFEASTILKRNGKFLNSGVHILGEVPGVEVGDEFQYRMELNILGIHKPSQAGIDYMKYGKAKVATSIVASGGYDDHLDNSDVLTYTGQGGNVMQVKKKGEELKEPEDQKLITGNLALATSIEKQTPVRVIRGKHKSTHDKSKGGNYVYDGLYLVEKYWQQVGSHGMNVFKFQLRRIPGQPELSWVEVKKSKSKYREGLCKLDISEGKEQSPISAVNEIDDEKPPLFTYTVKLIYPDWCRPVPPKSCCCTTRCTEAEARVCACVEKNGGEIPYNFDGAIVGAKPTIYECGPLCKCPSSCYLRVTQHGIKLPLEIFKTKSRGWGVRCLKSIPIGSFICEYVGELLEDSEAERRIGNDEYLFDIGNRYDNSLAQGMSELMLGTQAGRSMAEGDESSGFTIDAASKGNVGRFINHSCSPNLYAQNVLYDHEDSRIPHVMFFAQDNIPPLQELCYDYNYALDQVRDSKGNIKQKPCFCGAAVCRRRLY
# B4: CMT2 (protein, UniProt Q94F87 1-1295)
# chain: MLSPAKCESEEAQAPLDLHSSSRSEPECLSLVLWCPNPEEAAPSSTRELIKLPDNGEMSLRRSTTLNCNSPEENGGEGRVSQRKSSRGKSQPLLMLTNGCQLRRSPRFRALHANFDNVCSVPVTKGGVSQRKFSRGKSQPLLTLTNGCQLRRSPRFRAVDGNFDSVCSVPVTGKFGSRKRKSNSALDKKESSDSEGLTFKDIAVIAKSLEMEIISECQYKNNVAEGRSRLQDPAKRKVDSDTLLYSSINSSKQSLGSNKRMRRSQRFMKGTENEGEENLGKSKGKGMSLASCSFRRSTRLSGTVETGNTETLNRRKDCGPALCGAEQVRGTERLVQISKKDHCCEAMKKCEGDGLVSSKQELLVFPSGCIKKTVNGCRDRTLGKPRSSGLNTDDIHTSSLKISKNDTSNGLTMTTALVEQDAMESLLQGKTSACGAADKGKTREMHVNSTVIYLSDSDEPSSIEYLNGDNLTQVESGSALSSGGNEGIVSLDLNNPTKSTKRKGKRVTRTAVQEQNKRSICFFIGEPLSCEEAQERWRWRYELKERKSKSRGQQSEDDEDKIVANVECHYSQAKVDGHTFSLGDFAYIKGEEEETHVGQIVEFFKTTDGESYFRVQWFYRATDTIMERQATNHDKRRLFYSTVMNDNPVDCLISKVTVLQVSPRVGLKPNSIKSDYYFDMEYCVEYSTFQTLRNPKTSENKLECCADVVPTESTESILKKKSFSGELPVLDLYSGCGGMSTGLSLGAKISGVDVVTKWAVDQNTAACKSLKLNHPNTQVRNDAAGDFLQLLKEWDKLCKRYVFNNDQRTDTLRSVNSTKETSGSSSSSDDDSDSEEYEVEKLVDICFGDHDKTGKNGLKFKVHWKGYRSDEDTWELAEELSNCQDAIREFVTSGFKSKILPLPGRVGVICGGPPCQGISGYNRHRNVDSPLNDERNQQIIVFMDIVEYLKPSYVLMENVVDILRMDKGSLGRYALSRLVNMRYQARLGIMTAGCYGLSQFRSRVFMWGAVPNKNLPPFPLPTHDVIVRYGLPLEFERNVVAYAEGQPRKLEKALVLKDAISDLPHVSNDEDREKLPYESLPKTDFQRYIRSTKRDLTGSAIDNCNKRTMLLHDHRPFHINEDDYARVCQIPKRKGANFRDLPGLIVRNNTVCRDPSMEPVILPSGKPLVPGYVFTFQQGKSKRPFARLWWDETVPTVLTVPTCHSQALLHPEQDRVLTIRESARLQGFPDYFQFCGTIKERYCQIGNAVAVSVSRALGYSLGMAFRGLARDEHLIKLPQNFSHSTYPQLQETIPH
# B5: CMT3 (protein, UniProt Q94F88 1-839)
# chain: MAPKRKRPATKDDTTKSIPKPKKRAPKRAKTVKEEPVTVVEEGEKHVARFLDEPIPESEAKSTWPDRYKPIEVQPPKASSRKKTKDDEKVEIIRARCHYRRAIVDERQIYELNDDAYVQSGEGKDPFICKIIEMFEGANGKLYFTARWFYRPSDTVMKEFEILIKKKRVFFSEIQDTNELGLLEKKLNILMIPLNENTKETIPATENCDFFCDMNYFLPYDTFEAIQQETMMAISESSTISSDTDIREGAAAISEIGECSQETEGHKKATLLDLYSGCGAMSTGLCMGAQLSGLNLVTKWAVDMNAHACKSLQHNHPETNVRNMTAEDFLFLLKEWEKLCIHFSLRNSPNSEEYANLHGLNNVEDNEDVSEESENEDDGEVFTVDKIVGISFGVPKKLLKRGLYLKVRWLNYDDSHDTWEPIEGLSNCRGKIEEFVKLGYKSGILPLPGGVDVVCGGPPCQGISGHNRFRNLLDPLEDQKNKQLLVYMNIVEYLKPKFVLMENVVDMLKMAKGYLARFAVGRLLQMNYQVRNGMMAAGAYGLAQFRLRFFLWGALPSEIIPQFPLPTHDLVHRGNIVKEFQGNIVAYDEGHTVKLADKLLLKDVISDLPAVANSEKRDEITYDKDPTTPFQKFIRLRKDEASGSQSKSKSKKHVLYDHHPLNLNINDYERVCQVPKRKGANFRDFPGVIVGPGNVVKLEEGKERVKLESGKTLVPDYALTYVDGKSCKPFGRLWWDEIVPTVVTRAEPHNQVIIHPEQNRVLSIRENARLQGFPDDYKLFGPPKQKYIQVGNAVAVPVAKALGYALGTAFQGLAVGKDPLLTLPEGFAFMKPTLPSELA
# Molecular target: T1, Flag-AGDP1 (Arabidopsis thaliana) (UniProt Q500V5)
# T1 sequence: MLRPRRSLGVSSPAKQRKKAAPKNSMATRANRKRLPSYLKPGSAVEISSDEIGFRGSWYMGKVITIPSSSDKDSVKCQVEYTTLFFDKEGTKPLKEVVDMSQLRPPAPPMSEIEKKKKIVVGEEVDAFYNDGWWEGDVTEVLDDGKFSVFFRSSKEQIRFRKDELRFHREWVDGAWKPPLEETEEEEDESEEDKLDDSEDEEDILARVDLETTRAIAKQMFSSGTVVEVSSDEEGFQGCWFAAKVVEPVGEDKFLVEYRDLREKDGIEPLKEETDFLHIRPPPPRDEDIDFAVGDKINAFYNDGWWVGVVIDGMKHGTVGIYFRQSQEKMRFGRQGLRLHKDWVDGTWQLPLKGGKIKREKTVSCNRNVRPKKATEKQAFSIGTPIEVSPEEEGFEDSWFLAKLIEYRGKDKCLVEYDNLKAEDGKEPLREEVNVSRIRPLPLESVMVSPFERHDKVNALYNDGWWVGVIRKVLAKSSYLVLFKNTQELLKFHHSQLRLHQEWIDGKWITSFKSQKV
# Assay: affinity purification with mass spectrometry; immunoprecipitation of Flag-AGDP1 from pAGDP1-Flag-AGDP1 transgenic plants followed by mass spectrometry (IP-MS), four replicates
row,Binder,binding
1,B1,no binding
2,B2,no binding
3,B3,no binding
4,B4,no binding
5,B5,no binding

# Source: PMC6208443, “Arabidopsis AGDP1 links H3K9me2 to DNA methylation in heterochromatin” (Nature Communications, 2018)
